Target: His6P4H1 (Dictyostelium discoideum, UniProt Q86KR9)
Assay: […]CO2-release assay with Skp1A
Assay type: biochemical
Details: read-out: % inhibition at 1 mM

Amino acid sequences for entries named in this document (tags omitted). A change or cut given only in a name is not applied to a line headed by its entry.
UniProt Q86KR9: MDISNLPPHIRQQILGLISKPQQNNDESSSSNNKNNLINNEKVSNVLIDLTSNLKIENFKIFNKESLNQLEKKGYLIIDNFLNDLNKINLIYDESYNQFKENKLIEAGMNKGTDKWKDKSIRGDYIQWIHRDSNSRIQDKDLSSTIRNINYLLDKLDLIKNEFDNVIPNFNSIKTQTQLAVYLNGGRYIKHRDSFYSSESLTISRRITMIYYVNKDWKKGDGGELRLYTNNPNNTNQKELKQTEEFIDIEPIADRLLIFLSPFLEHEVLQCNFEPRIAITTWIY

inhibition at 1000 µM: 50 to 70%
SMILES: O=C(O)CC(O)(CC(=O)O)C(=O)O [citrate]
